Construct, isoform or probe ends are uncertain for at least one entry. At least one result comes from cells or an extract, where the contact may be indirect.
Target: protein tyrosine kinase 7 (PTK7), on HCT116 cells (UniProt Q13308)
Experiment: flow cytometry
Conditions: Flow cytometry with HCT116 cells, protein on the cell surface, label: 3'-Cy5, folded or branched DNA

The chains behind the UniProt entries cited, without tags or fusion partners. Residues count along the entry.
UniProt Q13308, 31-1070: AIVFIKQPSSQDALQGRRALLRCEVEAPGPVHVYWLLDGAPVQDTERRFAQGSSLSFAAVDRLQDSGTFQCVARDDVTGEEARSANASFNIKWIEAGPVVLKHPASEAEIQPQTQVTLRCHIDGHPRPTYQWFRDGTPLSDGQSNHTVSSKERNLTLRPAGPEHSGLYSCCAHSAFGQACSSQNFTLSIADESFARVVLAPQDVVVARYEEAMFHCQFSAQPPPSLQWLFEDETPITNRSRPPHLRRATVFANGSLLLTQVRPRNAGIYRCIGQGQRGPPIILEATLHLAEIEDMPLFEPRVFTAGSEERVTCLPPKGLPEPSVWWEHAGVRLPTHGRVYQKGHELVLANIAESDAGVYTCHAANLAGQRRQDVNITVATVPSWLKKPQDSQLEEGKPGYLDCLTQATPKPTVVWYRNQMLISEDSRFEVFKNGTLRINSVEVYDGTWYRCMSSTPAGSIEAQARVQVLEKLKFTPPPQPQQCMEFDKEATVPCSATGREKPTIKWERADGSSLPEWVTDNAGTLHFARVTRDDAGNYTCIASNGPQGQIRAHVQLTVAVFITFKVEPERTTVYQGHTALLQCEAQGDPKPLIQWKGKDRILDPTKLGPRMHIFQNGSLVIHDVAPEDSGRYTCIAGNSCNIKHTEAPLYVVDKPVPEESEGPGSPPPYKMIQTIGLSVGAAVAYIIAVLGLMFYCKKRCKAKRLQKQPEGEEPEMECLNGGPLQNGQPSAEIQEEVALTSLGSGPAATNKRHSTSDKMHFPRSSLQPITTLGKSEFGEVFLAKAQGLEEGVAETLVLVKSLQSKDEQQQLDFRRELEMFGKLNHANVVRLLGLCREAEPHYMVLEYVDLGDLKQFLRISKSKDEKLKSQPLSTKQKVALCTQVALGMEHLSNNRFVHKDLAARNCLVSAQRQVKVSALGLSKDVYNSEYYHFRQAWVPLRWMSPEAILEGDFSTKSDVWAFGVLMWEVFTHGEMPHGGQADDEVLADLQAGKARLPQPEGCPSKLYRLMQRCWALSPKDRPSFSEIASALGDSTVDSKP

Question: Does “TTTTTTTTATCTAACTGCTGCGCCGCCGGGAAAATACTGTACGGTTAGA [Sgc8-P]” bind (fluorescence comparable to Sgc8, much stronger than random Cy5 library, 5'-terminal phenolic element P (4-hydroxybenzamide of 3-aminopropane-1,2-diol, non-nucleoside))?
Answer: binds

Question: Does “ATCTAACTGCTGCGCCGCCGGGAAAATACTGTACGGTTAGA [Sgc8]” bind (positive control, much stronger than random Cy5 library)?
Answer: binds
